# Laboratory results from article PMC4374139.
# By UniProt entry, the sequences of proteins in these tests, tags left out. Where a name states a change or a piece, a line headed by the entry shows the natural chain unless it says otherwise.
# UniProt Q92547: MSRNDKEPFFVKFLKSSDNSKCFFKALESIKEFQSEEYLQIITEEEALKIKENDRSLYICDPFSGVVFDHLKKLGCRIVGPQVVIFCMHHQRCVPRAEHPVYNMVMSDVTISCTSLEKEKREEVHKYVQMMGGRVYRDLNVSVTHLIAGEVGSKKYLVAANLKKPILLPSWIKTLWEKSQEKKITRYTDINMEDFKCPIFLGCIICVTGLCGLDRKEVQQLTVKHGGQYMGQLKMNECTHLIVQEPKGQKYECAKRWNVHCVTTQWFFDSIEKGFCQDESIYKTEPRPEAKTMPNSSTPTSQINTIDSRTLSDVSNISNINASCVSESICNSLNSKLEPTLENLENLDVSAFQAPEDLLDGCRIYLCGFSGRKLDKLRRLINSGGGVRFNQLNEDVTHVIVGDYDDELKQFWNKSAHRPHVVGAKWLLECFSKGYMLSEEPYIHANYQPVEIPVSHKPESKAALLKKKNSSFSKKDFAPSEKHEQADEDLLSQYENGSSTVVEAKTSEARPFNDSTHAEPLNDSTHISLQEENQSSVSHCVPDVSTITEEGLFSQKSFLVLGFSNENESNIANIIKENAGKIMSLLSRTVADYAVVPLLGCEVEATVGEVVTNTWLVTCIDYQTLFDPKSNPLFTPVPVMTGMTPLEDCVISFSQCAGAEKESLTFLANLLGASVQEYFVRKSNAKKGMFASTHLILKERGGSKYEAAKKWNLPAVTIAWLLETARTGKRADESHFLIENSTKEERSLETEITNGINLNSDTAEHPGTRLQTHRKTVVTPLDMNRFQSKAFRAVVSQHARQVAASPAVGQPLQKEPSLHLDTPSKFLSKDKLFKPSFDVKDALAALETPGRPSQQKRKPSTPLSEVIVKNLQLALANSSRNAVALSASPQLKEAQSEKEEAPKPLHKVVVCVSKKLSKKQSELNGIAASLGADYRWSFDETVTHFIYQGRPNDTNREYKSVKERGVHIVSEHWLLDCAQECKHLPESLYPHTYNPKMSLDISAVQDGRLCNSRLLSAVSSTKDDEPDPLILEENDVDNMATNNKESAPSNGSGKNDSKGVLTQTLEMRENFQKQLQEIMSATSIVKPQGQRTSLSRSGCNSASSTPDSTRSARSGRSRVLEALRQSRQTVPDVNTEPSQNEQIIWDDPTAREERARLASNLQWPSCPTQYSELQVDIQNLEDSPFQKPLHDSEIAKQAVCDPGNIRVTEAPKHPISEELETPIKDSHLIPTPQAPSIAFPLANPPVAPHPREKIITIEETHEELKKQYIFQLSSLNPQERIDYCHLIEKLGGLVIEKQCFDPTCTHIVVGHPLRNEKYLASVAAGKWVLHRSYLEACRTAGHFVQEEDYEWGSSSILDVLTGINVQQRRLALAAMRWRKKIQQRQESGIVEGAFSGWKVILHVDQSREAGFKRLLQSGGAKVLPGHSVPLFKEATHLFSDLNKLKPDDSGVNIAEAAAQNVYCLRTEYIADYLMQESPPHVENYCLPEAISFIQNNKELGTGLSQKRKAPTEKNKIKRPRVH
# UniProt P54132: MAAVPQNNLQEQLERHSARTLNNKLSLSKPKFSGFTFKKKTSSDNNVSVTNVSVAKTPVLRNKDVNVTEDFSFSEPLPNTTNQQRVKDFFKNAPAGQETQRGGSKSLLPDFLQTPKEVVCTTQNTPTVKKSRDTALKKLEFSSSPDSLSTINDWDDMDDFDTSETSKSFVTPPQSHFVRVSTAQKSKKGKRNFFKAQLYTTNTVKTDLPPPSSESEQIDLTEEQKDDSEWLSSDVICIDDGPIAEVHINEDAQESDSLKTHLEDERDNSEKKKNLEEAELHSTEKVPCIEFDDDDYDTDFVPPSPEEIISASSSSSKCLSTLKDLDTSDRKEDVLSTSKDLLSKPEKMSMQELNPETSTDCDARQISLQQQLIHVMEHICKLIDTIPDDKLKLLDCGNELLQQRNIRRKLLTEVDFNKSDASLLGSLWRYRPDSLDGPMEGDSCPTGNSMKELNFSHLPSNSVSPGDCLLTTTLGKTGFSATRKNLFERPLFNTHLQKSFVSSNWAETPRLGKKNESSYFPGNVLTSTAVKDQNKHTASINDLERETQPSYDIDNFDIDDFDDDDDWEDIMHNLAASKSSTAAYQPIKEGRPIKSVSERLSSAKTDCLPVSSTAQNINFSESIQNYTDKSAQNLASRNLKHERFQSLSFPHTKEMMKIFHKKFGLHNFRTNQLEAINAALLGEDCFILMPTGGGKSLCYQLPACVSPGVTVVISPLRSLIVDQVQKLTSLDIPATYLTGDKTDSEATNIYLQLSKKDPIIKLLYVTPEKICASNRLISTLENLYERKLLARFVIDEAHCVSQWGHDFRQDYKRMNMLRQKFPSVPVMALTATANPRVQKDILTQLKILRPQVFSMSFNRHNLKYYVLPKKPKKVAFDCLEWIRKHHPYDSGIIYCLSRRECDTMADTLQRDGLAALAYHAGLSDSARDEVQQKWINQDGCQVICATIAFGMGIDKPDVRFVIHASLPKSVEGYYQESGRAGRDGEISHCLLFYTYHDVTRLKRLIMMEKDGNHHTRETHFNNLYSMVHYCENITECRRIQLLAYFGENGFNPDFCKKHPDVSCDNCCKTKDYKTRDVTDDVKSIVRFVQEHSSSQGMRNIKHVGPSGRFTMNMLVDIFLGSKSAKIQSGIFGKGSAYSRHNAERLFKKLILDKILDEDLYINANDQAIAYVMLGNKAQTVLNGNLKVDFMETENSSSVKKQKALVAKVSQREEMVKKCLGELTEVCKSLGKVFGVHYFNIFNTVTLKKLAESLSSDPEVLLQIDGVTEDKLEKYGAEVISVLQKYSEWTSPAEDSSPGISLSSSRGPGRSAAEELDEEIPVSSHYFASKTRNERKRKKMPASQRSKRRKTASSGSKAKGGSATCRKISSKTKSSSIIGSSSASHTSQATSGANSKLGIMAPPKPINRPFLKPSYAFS
# Results are given in words; binding and its absence hold for the method and conditions named. Binding seen in cells or lysates may run through a third protein.
# B1: topoisomerase IIIα (TOP3A) (protein, UniProt Q13472 1-1001)
# chain: MIFPVARYALRWLRRPEDRAFSRAAMEMALRGVRKVLCVAEKNDAAKGIADLLSNGRMRRREGLSKFNKIYEFDYHLYGQNVTMVMTSVSGHLLAHDFQMQFRKWQSCNPLVLFEAEIEKYCPENFVDIKKTLERETRQCQALVIWTDCDREGENIGFEIIHVCKAVKPNLQVLRARFSEITPHAVRTACENLTEPDQRVSDAVDVRQELDLRIGAAFTRFQTLRLQRIFPEVLAEQLISYGSCQFPTLGFVVERFKAIQAFVPEIFHRIKVTHDHKDGIVEFNWKRHRLFNHTACLVLYQLCVEDPMATVVEVRSKPKSKWRPQALDTVELEKLASRKLRINAKETMRIAEKLYTQGYISYPRTETNIFPRDLNLTVLVEQQTPDPRWGAFAQSILERGGPTPRNGNKSDQAHPPIHPTKYTNNLQGDEQRLYEFIVRHFLACCSQDAQGQETTVEIDIAQERFVAHGLMILARNYLDVYPYDHWSDKILPVYEQGSHFQPSTVEMVDGETSPPKLLTEADLIALMEKHGIGTDATHAEHIETIKARMYVGLTPDKRFLPGHLGMGLVEGYDSMGYEMSKPDLRAELEADLKLICDGKKDKFVVLRQQVQKYKQVFIEAVAKAKKLDEALAQYFGNGTELAQQEDIYPAMPEPIRKCPQCNKDMVLKTKKNGGFYLSCMGFPECRSAVWLPDSVLEASRDSSVCPVCQPHPVYRLKLKFKRGSLPPTMPLEFVCCIGGCDDTLREILDLRFSGGPPRASQPSGRLQANQSLNRMDNSQHPQPADSRQTGSSKALAQTLPPPTAAGESNSVTCNCGQEAVLLTVRKEGPNRGRQFFKCNGGSCNFFLWADSPNPGAGGPPALAYRPLGASLGCPPGPGIHLGGFGNPGDGSGSGTSCLCSQPSVTRTVQKDGPNKGRQFHTCAKPREQQCGFFQWVDENTAPGTSGAPSWTGDRGRTLESEARSKRPRASSSDMGSTAKKPRKCSLCHQPGHTRPFCPQNR
# B2: RMI2 (protein, UniProt Q96E14 1-147)
# chain: MAAAADSFSGGPAGVRLPRSPPLKVLAEQLRRDAEGGPGAWRLSRAAAGRGPLDLAAVWMQGRVVMADRGEARLRDPSGDFSVRGLERVPRGRPCLVPGKYVMVMGVVQACSPEPCLQAVKMTDLSDNPIHESMWELEVEDLHRNIP
# B3: RMI1 (protein, UniProt Q9H9A7 1-625)
# chain: MNVTSIALRAETWLLAAWHVKVPPMWLEACINWIQEENNNVNLSQAQMNKQVFEQWLLTDLRDLEHPLLPDGILEIPKGELNGFYALQINSLVDVSQPAYSQIQKLRGKNTTNDLVTAEAQVTPKPWEAKPSRMLMLQLTDGIVQIQGMEYQPIPILHSDLPPGTKILIYGNISFRLGVLLLKPENVKVLGGEVDALLEEYAQEKVLARLIGEPDLVVSVIPNNSNENIPRVTDVLDPALGPSDEELLASLDENDELTANNDTSSERCFTTGSSSNTIPTRQSSFEPEFVISPRPKEEPSNLSIHVMDGELDDFSLEEALLLEETVQKEQMETKELQPLTFNRNADRSIERFSHNPNTTNNFSLTCKNGNNNWSEKNVSEQMTNEDKSFGCPSVRDQNRSIFSVHCNVPLAHDFTNKEKNLETDNKIKQTSSSDSHSLNNKILNREVVNYVQKRNSQISNENDCNLQSCSLRSSENSINLSIAMDLYSPPFVYLSVLMASKPKEVTTVKVKAFIVTLTGNLSSSGGIWSITAKVSDGTAYLDVDFVDEILTSLIGFSVPEMKQSKKDPLQYQKFLEGLQKCQRDLIDLCCLMTISFNPSLSKAMVLALQDVNMEHLENLKKRLNK
# Biological target: TopBP1 BRCT5 mutant of Figure 1F (UniProt Q92547)
# Assay: co-IP; pull-down of GFP-tagged TopBP1 or BLM constructs (GFP-Trap agarose) from lysates of transiently transfected 293FT cells, 24 hr after transfection; also cells synchronized in S phase (Figure S3A); Benzonase-treated lysate, 200 mM NaCl, 2 mM EDTA, 4°C; western blot
row,binding,Molecule
1,no binding,"Bloom syndrome helicase BLM, endogenous (from UniProt P54132 1-1417)"
2,no binding,B1
3,no binding,B2
4,no binding,B3
